Assay results as given in publication PMC6946813.

Target: T1, B-cell lymphoma 9 (BCL9) (human (endogenous in RKO, Colo320, SW620, LS174T, DLD-1)) (UniProt O00512)
T1 sequence: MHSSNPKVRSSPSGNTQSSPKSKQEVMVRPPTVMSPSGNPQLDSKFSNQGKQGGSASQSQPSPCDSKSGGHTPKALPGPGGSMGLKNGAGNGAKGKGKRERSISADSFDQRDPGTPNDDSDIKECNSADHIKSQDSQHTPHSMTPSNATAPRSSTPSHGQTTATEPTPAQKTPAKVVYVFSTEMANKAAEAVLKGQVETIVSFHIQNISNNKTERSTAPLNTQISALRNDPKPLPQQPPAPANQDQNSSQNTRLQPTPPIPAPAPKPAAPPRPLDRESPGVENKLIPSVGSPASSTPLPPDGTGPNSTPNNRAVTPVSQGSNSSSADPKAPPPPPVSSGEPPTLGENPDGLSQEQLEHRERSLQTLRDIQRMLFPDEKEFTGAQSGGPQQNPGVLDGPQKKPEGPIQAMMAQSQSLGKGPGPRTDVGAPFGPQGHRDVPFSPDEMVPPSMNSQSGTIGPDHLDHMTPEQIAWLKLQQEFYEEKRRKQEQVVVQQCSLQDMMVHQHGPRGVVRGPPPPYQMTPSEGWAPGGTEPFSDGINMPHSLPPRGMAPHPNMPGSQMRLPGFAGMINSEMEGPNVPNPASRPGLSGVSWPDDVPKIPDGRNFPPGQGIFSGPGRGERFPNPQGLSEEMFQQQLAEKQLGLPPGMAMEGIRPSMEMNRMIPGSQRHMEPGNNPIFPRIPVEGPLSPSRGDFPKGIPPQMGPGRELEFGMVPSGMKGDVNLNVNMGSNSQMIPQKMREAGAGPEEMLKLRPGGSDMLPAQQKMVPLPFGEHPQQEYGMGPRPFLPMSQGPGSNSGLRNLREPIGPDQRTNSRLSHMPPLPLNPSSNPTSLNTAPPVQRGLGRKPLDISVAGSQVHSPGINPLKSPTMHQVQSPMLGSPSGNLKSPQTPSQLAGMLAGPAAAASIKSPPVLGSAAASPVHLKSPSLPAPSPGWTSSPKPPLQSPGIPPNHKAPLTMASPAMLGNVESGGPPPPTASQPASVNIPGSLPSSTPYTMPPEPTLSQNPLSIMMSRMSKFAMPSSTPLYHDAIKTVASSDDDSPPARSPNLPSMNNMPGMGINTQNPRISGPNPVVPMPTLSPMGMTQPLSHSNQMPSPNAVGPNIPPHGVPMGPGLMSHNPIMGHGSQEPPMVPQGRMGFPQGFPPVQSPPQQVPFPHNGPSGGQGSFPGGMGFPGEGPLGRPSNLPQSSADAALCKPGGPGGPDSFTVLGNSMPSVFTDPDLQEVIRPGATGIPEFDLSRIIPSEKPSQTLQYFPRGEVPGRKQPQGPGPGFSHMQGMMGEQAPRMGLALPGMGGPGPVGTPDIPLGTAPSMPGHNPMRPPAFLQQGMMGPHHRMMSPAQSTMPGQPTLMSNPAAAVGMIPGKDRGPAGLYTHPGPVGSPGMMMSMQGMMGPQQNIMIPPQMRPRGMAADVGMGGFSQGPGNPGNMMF
Experiment: affinity purification with mass spectrometry; anti-BCL9 (two antibodies: ab37305 Abcam, 6109) or normal IgG precipitates from nuclear lysate of RKO and Colo320 cells; total protein MS after TCA precipitation and MS of bands cut from silver-stained gels

binding: binds
Substance: VCP (from UniProt P55072 1-806)

Results are given in words; binding and its absence hold for the method and conditions named. Binding seen in cells or lysates may run through a third protein. Here binding means that the protein was enriched with, or labelled near, the bait; the list need not be complete.
